Results deposited as PubChem BioAssay AID504784 (Drosophila RNAi Screening Center, 2011)
The deposit covers about 17,000 reagents; this is an unselected part of those with a known target gene and a result. 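Each column is one replicate's B-score; the combined score over replicates was not deposited, so single values may mislead.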 Further read-outs or replicates are left out here. No sequences are given here.

- Aim: 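Search for regulators of lipid droplet storage in oleate-fed fly cells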 (primary screen)
- Cell system: Drosophila Kc167 embryonic cells
- Knock-down reagent: long dsRNA against Drosophila genes, about 250 ng dsRNA per well
- Time to read-out: 4 days
- Treatment: cells fed 400 µM oleic acid bound to BSA
- Read-out: 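Cells imaged and segmented; ratio of lipid droplet area to nuclear area, log-transformed, then normalised as a B-score over the screen; higher means more stored lipid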
- Scale: droplet/nuclear area B-score: higher = more stored lipid (overstorage)

Knock-down of Ir94f (Ionotropic receptor 94f) [DRSC13621] resulted in: droplet/nuclear area B-score, replicate 1 = 0.342. Depletion of Desat1 (Desaturase 1) [DRSC16668] came out at: droplet/nuclear area B-score, replicate 1 = -2.17. CG17264 [DRSC00500] gave droplet/nuclear area B-score, replicate 1 = -2.69. car (carnation) [DRSC20316] showed droplet/nuclear area B-score, replicate 1 = 0.443. Ir41a (Ionotropic receptor 41a) [DRSC04730] gave droplet/nuclear area B-score, replicate 1 = -0.835. For Ir41a (Ionotropic receptor 41a) [DRSC04875] the deposit lists droplet/nuclear area B-score, replicate 1 = -0.484.

Knock-down of CG4622 [DRSC04479] came out at: droplet/nuclear area B-score, replicate 1 = -0.444. With knock-down of CG34450 [DRSC17822] the results were droplet/nuclear area B-score, replicate 1 = -0.0642. With knock-down of CG10055 [DRSC12503], the screen gave droplet/nuclear area B-score, replicate 1 = 0.241.

Quoted from above for reference:
CG17264 [DRSC00500] | droplet/nuclear area B-score, replicate 1: -2.69
car (carnation) [DRSC20316] | droplet/nuclear area B-score, replicate 1: 0.443

Continued:
With knock-down of ppk12 (pickpocket 12) [DRSC04086], the record shows droplet/nuclear area B-score, replicate 1 = 0.00988. CG2983 [DRSC00558] gave droplet/nuclear area B-score, replicate 1 = -0.499. Knock-down of ND2 (retired record) [DRSC21274] gave: droplet/nuclear area B-score, replicate 1 = 0.226. For CG14551 [DRSC14894], the values are droplet/nuclear area B-score, replicate 1 = -0.0117. Against CG3847 [DRSC17444], the values are droplet/nuclear area B-score, replicate 1 = -0.0802. With knock-down of CG3847 [DRSC18327] the results were droplet/nuclear area B-score, replicate 1 = 1.64.

Against RASSF8 (Ras association domain family member 8) [DRSC15707] the deposit lists droplet/nuclear area B-score, replicate 1 = 0.0183.
